Results taken from doi:10.1101/2021.11.03.467045.
No constants are given. Whether binding was seen depends on the method and setting. Binding seen in cells or lysates may run through a third protein. For some assays here: Sequences can lack the tags named with a protein.

Assays:
[1] = target: T1, HA-tagged ΔRING-TRIM41 (mouse) (UniProt Q5NCC3); assay: co-IP
T1 sequence: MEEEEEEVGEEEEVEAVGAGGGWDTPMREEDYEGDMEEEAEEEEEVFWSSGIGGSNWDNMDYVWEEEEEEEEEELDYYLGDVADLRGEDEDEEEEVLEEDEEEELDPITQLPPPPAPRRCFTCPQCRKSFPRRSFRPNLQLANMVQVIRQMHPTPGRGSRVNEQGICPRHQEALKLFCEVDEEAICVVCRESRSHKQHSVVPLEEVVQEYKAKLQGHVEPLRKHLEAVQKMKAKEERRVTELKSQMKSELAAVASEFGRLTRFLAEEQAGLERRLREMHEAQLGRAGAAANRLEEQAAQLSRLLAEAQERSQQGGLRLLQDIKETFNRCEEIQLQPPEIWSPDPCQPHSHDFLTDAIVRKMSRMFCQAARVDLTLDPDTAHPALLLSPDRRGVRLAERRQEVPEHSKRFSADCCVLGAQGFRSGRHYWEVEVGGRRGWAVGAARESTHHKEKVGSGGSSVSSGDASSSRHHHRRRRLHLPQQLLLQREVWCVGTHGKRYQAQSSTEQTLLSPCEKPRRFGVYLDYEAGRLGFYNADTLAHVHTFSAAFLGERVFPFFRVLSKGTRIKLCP

[2] = target: T2, tripartite motif-containing 41 (TRIM41) (mouse (endogenous in testis)) (UniProt Q5NCC3); assay: co-IP
T2 sequence: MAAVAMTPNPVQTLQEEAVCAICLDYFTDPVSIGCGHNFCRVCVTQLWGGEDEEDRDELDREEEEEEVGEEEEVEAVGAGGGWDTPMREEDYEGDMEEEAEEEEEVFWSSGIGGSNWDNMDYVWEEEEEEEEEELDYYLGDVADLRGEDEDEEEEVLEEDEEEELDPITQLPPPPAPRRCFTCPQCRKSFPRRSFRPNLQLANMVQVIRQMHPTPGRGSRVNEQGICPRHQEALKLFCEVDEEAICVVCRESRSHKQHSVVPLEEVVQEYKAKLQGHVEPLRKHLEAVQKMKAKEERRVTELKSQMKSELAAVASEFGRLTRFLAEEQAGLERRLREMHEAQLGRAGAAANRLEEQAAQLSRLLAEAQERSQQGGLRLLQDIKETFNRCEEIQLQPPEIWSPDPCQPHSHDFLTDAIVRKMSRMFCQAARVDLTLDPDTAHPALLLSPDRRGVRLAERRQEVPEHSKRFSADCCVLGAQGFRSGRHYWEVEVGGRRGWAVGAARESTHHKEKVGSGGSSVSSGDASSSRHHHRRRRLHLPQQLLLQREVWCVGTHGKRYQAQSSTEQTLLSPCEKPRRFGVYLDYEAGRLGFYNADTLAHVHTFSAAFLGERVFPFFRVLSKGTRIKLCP

B1: synaptonemal complex protein 3 (SYCP3) (protein, UniProt P70281 1-254)
chain: MLRGCGDSDSSPEPLSKHLKMVPGGRKHSGKSGKPPLVDQPKKAFDFEKDDKDLSGSEEDVADEKAPVIDKHGKKRSAGIIEDVGGEVQNMLEKFGADINKALLAKRKRIEMYTKASFKASNQKIEQIWKTQQEEIQKLNNEYSQQFMNVLQQWELDIQKFEEQGEKLSNLFRQQQKIFQQSRIVQSQRMFAMKQIHEQFIKSLEDVEKNNDNLFTGTQSELKKEMAMLQKKVMMETQQQEMANVRKSLQSMLF
Q: Which binding [1] does the source give for B1 here?
A: Its binding is “no binding”.

Q: And the binding [2]?
A: The binding was “no binding”.
